Test results taken from patent publication US20200129450A1, “COMPOSITION COMPRISING OSMUNDACETONE OR PHARMACEUTICALLY ACCEPTABLE SALT THEREOF FOR PREVENTING OR TREATING BONE DISEASE” (KORPHARM CO., LTD., priority 2016, published 2020).

System: B16F10 mouse melanoma
Assay: MTT assay cytotoxicity
Format: cell-based
Conditions: B16F10, 24 hours
Protocol: HaCaT human epidermal keratinocytes, # ATCC PCS-200-011) were incubated using Dulbecco's modified Eagle's medium (DMEM, # DMEM-HPA, Capricorn Scientific, Ebsdorfergrund, Germany) in the conditions of 37° C. and 5% CO2. NIH3T3 mouse embryo fibroblasts (# KCLB 21658), RAW264.7 murine macrophages (preosteoclast cell line, # KCLB 40071), HCT116 human colon cancer cells (# KCLB 10247), PC3 human prostate adenocarcinoma cells (# KCLB 21435), HT1080 human fibrosarcoma cells (# KCLB 1121), and B16F10 mouse malignant melanoma cells (# KCLB 80008) were purchased from the Korean Cell Line Bank, and incubated using DMEM in the conditions of 37° C. and 5% C02.
The compound isolated from Osmunda japonica, prepared in section 1 of <Example 1>, was investigated for cytotoxicity using MTT assay.
MTT assay was as follows.
Cells were incubated at 1×10^3 cells/well in a 96-well plate containing DMEM with 10% fetal bovine serum (FBS) at 5% CO2 and 37° C., and then osmundacetone was added to the cell medium, followed by incubation for 24 hours. Thereafter, 100 μL of MTT (0.5 mg/ml PBS) was administered, followed by incubation for 2 hours. […] After incubation for 10 minutes, the absorbance was measured using a microplate reader (SPCTRA MAX 340PC, Molecular Devices, USA) at 570 nm. The absorbance is an indicator showing the number of living cells, and calculated by the following equation. […]

NCCCC(O)(P(=O)(O)O)P(=O)(O)O [Fosamax, alendronate, reference compound]
LD50 (MTT assay): >5,000 μM
